Reference: PubChem BioAssay AID1053208 (Peter MacCallum Cancer Centre, 2014)
Purpose: 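Synthetic lethal interactions between gene loss and doxorubicin in osteosarcoma cells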 (primary screen). System: mouse osteosarcoma cells, early-passage culture from an engineered mouse model of fibroblastic bone tumour. Knock-down reagent: siRNA pool against mouse genes, 40 nM. Time to read-out: about 120 h (48 h before drug, then 72 h with drug). Treatment: doxorubicin 100 nM for 72 h, roughly 30-40% inhibitory dose. Read-out: 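Luminescent ATP signal taken as viability with or without 100 nM doxorubicin for 72 h; mean of two wells set against non-targeting siRNA and turned into robust z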. Direction: viability z-score with doxorubicin: higher = more viable cells under doxorubicin; viability z-score without drug: higher = more viable cells with knock-down alone. Call rule: 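a pool counts as active when its viability z-score with doxorubicin is -2 or below and its z-score without drug lies between -2 and 2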.
This is an unselected part of about 17,000 reagents tested. 788 of them (4.7%) count as active. 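Calls rest on z-score classes alone; an extra cut-off of viability at most 70% of control was not applied to them.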 A number with no mark means an inactive call. Reagents against one gene are numbered here. Further read-outs or replicates are left out here. Reagent sequences are not shown.

How did the screen score Ampd3 (GeneID 11717)?
combined z-score class: no change with or without drug; viability z-score with doxorubicin: -0.45; viability z-score without drug: -0.51

With Pacrgl (GeneID 66768), how do the results read?
combined z-score class: low cell count with doxorubicin only (active); viability z-score with doxorubicin: -2.02; viability z-score without drug: 0.51

For Dusp15 (GeneID 252864), what was measured?
combined z-score class: high cell count with doxorubicin only; viability z-score with doxorubicin: 2.02; viability z-score without drug: 0.51

Which result is listed for Tmem203 (GeneID 227615)?
combined z-score class: no change with or without drug; viability z-score with doxorubicin: -1.01; viability z-score without drug: -0.17

What did the screen give for Hnf1a (GeneID 21405)?
combined z-score class: no change with or without drug; viability z-score with doxorubicin: 0.22; viability z-score without drug: 0.51

What did the screen give for Dpep1 (GeneID 13479)?
combined z-score class: no change with or without drug; viability z-score with doxorubicin: 1.46; viability z-score without drug: -0.17

How did the screen score Usp17la (GeneID 13531)?
combined z-score class: no change with or without drug; viability z-score with doxorubicin: -0.67; viability z-score without drug: 1.18

What is on record for Hhip (GeneID 15245)?
combined z-score class: no change with or without drug; viability z-score with doxorubicin: 0.45; viability z-score without drug: 1.52

For Cdkl1 (GeneID 71091), how do the results read?
combined z-score class: low cell count without drug only; viability z-score with doxorubicin: -1.12; viability z-score without drug: -2.19

What is on record for F7 (GeneID 14068)?
combined z-score class: low cell count with doxorubicin only (active); viability z-score with doxorubicin: -2.02; viability z-score without drug: 0.51

Ordered by “viability z-score without drug” (ascending): 2 of the entries above
Tmem203 (GeneID 227615) → combined z-score class = no change with or without drug; viability z-score with doxorubicin = -1.01; viability z-score without drug = -0.17
Hnf1a (GeneID 21405) → combined z-score class = no change with or without drug; viability z-score with doxorubicin = 0.22; viability z-score without drug = 0.51

More entries follow.
For Gimap4 (GeneID 107526), how do the results read?
combined z-score class: no change with or without drug; viability z-score with doxorubicin: -0.45; viability z-score without drug: -1.18

With Fabp5 (GeneID 16592), what does the deposit list?
combined z-score class: no change with or without drug; viability z-score with doxorubicin: 0.9; viability z-score without drug: 0.17

Which result is listed for Magi1 (GeneID 14924)?
combined z-score class: no change with or without drug; viability z-score with doxorubicin: 1.01; viability z-score without drug: 1.18

With Gatad1 (GeneID 67210), how do the results read?
combined z-score class: no change with or without drug; viability z-score with doxorubicin: -1.12; viability z-score without drug: -1.52

With Sfxn4 (GeneID 94281), what was measured?
combined z-score class: no change with or without drug; viability z-score with doxorubicin: 0.22; viability z-score without drug: -0.51

For Zbtb46 (GeneID 72147), how do the results read?
combined z-score class: no change with or without drug; viability z-score with doxorubicin: -0.45; viability z-score without drug: 1.52

What is on record for Vps36 (GeneID 70160)?
combined z-score class: no change with or without drug; viability z-score with doxorubicin: -1.12; viability z-score without drug: 1.18

What did the screen give for Emilin2 (GeneID 246707)?
combined z-score class: no change with or without drug; viability z-score with doxorubicin: 0.34; viability z-score without drug: 1.18

For Tmem91 (GeneID 320208), what does the deposit list?
combined z-score class: no change with or without drug; viability z-score with doxorubicin: 0.9; viability z-score without drug: 1.01

For Akt1s1 (GeneID 67605), what was measured?
combined z-score class: no change with or without drug; viability z-score with doxorubicin: 0.45; viability z-score without drug: -0.67

With Or2b4 (GeneID 259064), what was measured?
combined z-score class: no change with or without drug; viability z-score with doxorubicin: -1.8; viability z-score without drug: -1.35

For Wdr83 (GeneID 67836), how do the results read?
combined z-score class: no change with or without drug; viability z-score with doxorubicin: 0.45; viability z-score without drug: 1.18

For Or3a1 (GeneID 258702), how do the results read?
combined z-score class: no change with or without drug; viability z-score with doxorubicin: 0.9; viability z-score without drug: 0.67

Which result is listed for Celf2 (GeneID 14007) #1?
combined z-score class: low cell count with doxorubicin only (active); viability z-score with doxorubicin: -4.27; viability z-score without drug: -0.17

What did the screen give for Celf2 (GeneID 14007) #2?
combined z-score class: no change with or without drug; viability z-score with doxorubicin: 0.11; viability z-score without drug: -0.17

For Gng5 (GeneID 14707), what does the deposit list?
combined z-score class: no change with or without drug; viability z-score with doxorubicin: -0.9; viability z-score without drug: 0.84

With Bcl2l1 (GeneID 12048), what was measured?
combined z-score class: no change with or without drug; viability z-score with doxorubicin: -1.12; viability z-score without drug: -0.67

For Gba1 (GeneID 14466), what was measured?
combined z-score class: no change with or without drug; viability z-score with doxorubicin: -0.34; viability z-score without drug: -0.84
